Reference: patent US20230303676A1
These are yes or no findings as the source states them, for the method shown. Binding calls can cover weak binding; strength is not graded here.

Molecular target: recombinant soluble netrin-1 (R&D systems)
Assay: immunoprecipitation with NP137 on Protein A magnetic beads, then Western blot; recombinant netrin-1 added to netrin-1 KO HepaRG or netrin-1 null Hepa1-6 cells

B1: NP137 humanized anti-netrin-1 antibody (antibody, V domains shown)
VH: QVQLQQSGPGLVKPSQTLSLTCAISGYTFTSYNMHWVRQATGQGLEWMGAIYPGNGDTSYNQKFKGRLTISKDTSKNQVVLTMTNMDPVDTATYYCARGGTGFAYWGQG
VL: DIQMTQSPSSLSASVGDRVTITCKASQSVSNDVAWYQQKPGQAPRLLIYYASNRYTGIPPRFSGSGYGTDFTLTINNIESEDAAYYFCQQDYSSPWTFGQG
- binding: binds
